Test results: article PMC10564139

Target: T1, 6XHis-TCP4 (Arabidopsis thaliana) (UniProt Q8LPR5)
T1 sequence (looked up, limits assumed): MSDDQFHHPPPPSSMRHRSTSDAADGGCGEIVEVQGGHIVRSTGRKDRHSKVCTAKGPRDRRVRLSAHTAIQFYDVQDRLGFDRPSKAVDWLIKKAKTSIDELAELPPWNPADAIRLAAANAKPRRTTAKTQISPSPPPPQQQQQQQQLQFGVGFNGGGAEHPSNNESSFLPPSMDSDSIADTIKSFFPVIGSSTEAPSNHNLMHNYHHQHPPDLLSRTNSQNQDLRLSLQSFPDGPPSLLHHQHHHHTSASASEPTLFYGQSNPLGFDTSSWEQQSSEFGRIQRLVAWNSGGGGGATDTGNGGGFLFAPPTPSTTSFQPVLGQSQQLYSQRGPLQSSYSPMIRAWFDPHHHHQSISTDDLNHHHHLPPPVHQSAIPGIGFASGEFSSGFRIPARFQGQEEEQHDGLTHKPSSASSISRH
Assay: competition with a labelled probe
Details: unlabeled mCP, 10x or 25x excess; 20 mM HEPES-KOH pH 7.8, 100 mM KCl, 1 mM EDTA, 0.1% BSA, 10 ng herring sperm DNA, 10% glycerol, 0.05 uM probe, room temperature 30-40 min; 9% native gel, 0.5X TBE; protein in a lysate after overexpression; protein details: 6xHis

Sequence	binding result
ATAAGTGTGTGTTGCACTTCATTGTTTC (double strand) [mBS4]	no binding
CTAGTTGTTGATTGCACATTTAAAGCAA (double strand) [mBS3]	no binding
GAATATAAGCATTGTTCATGCTCAAAAA (double strand) [mBS1]	no binding
TGAATAGTTCTTTGTTCAAAGCTTGTAT (double strand) [mBS2]	no binding

Target: T1, 6XHis-TCP4 (Arabidopsis thaliana)
Assay: EMSA
Details: self competition at 10x and 25x; 20 mM HEPES-KOH pH 7.8, 100 mM KCl, 1 mM EDTA, 0.1% BSA, 10 ng herring sperm DNA, 10% glycerol, 0.05 uM probe, room temperature 30-40 min; 9% native gel, 0.5X TBE; protein in a lysate after overexpression; protein details: 6xHis; label: 32P 5' end

Sequence	binding result
ATAAGTGTGTGTGGCCCTTCATTGTTTC (double strand) [BS4]	binds
CTAGTTGTTGATGGCCCATTTAAAGCAA (double strand) [BS3]	binds
GAATATAAGCATGGTCCATGCTCAAAAA (double strand) [BS1]	binds
TGAATAGTTCTTGGTCCAAAGCTTGTAT (double strand) [BS2]	binds

The exact form of at least one protein or probe is not confirmed. Where cells or extracts were used, other partners may take part. For some assays here: Negatives hold for the conditions tested. For some assays here: At least one verdict was read from the data and is not stated in words by the source. Where a protein sequence is shown, tags need not be part of it.
